The values below come from article PMC5447282.

Sequences of proteins named here, by UniProt entry; tags and fusion partners are left off.
UniProt Q13330: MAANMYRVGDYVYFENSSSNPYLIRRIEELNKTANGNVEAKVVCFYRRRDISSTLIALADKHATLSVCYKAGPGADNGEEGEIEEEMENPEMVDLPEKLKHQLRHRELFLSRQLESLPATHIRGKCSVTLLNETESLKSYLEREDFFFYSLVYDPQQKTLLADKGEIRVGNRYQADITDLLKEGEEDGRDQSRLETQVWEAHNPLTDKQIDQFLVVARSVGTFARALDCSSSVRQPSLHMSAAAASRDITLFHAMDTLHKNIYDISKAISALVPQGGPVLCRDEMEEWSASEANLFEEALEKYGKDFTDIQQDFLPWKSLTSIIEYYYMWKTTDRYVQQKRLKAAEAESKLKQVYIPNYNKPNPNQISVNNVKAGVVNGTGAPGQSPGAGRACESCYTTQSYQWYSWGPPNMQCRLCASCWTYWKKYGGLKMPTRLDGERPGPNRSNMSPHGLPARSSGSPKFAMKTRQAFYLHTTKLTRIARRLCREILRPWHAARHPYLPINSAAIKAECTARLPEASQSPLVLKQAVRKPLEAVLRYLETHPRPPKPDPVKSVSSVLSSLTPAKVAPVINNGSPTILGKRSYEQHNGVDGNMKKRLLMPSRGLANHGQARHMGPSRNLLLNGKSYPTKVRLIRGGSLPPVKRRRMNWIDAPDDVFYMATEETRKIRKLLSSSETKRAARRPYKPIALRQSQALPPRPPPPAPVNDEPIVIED
UniProt Q16665: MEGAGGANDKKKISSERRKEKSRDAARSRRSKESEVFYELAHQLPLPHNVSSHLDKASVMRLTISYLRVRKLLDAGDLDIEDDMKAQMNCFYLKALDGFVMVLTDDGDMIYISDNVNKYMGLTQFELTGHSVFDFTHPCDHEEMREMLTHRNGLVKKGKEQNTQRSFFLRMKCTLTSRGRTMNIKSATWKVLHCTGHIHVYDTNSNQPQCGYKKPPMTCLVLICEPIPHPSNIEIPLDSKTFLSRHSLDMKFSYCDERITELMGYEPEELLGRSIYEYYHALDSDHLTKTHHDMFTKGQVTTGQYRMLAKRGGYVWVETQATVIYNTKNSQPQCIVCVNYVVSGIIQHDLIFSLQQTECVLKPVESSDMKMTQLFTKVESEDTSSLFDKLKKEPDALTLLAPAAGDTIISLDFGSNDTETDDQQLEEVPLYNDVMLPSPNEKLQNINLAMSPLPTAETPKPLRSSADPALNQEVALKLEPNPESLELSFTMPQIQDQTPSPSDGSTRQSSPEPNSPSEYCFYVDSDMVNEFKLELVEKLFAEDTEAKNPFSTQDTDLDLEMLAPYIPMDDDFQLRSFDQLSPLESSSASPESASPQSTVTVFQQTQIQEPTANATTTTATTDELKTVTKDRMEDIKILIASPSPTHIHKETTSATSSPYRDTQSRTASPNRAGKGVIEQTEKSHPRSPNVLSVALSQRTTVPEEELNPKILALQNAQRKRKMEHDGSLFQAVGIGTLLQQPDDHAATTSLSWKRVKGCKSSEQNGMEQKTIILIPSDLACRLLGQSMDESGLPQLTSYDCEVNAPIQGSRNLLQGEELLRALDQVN

For assay [1], the target named is Flag-MTA1 (metastasis-associated protein 1) (UniProt Q13330). The experiment in a line: co-IP; anti-Flag immunoprecipitation from MTA1-Flag-HepG2 cells transiently transfected with HIF-1α-HA; cells untreated or exposed to hypoxia (1% O2) for 4 h; binding told for hypoxic conditions.
In a further assay the target is GST-MTA1 (UniProt Q13330). The experiment in a line: pull-down; 1 μg GST-MTA1 immobilized on glutathione sepharose beads incubated with [35S]methionine-labeled in vitro translated HIF-1α in modified GBT buffer (10% glycerol, 50 mM Hepes-NaOH pH 7.5, 170 mM KCl, 7.5 mM MgCl2, 0.1 mM EDTA, 0.1 mM DTT, 1% Triton X-100), 4°C, 3 h; only the target ….

Results are given in words; binding and its absence hold for the method and conditions named. Binding seen in cells or lysates may run through a third protein. Some entries that bind do so weakly or less than the wild type.

For the substance “endogenous HIF-1α (hypoxia-inducible factor-1α) (from UniProt Q16665 1-826)”, in assay [1], the binding result is given as “binds”.

“HIF-1α-HA (exogenous hypoxia-inducible factor-1α) (from UniProt Q16665 1-826)”: the binding result in assay [1] was “binds”.

In the case of “in vitro translated HIF-1α (from UniProt Q16665 1-826)”, the binding result with GST-MTA1 was “binds”.
